Experimental findings from PubChem BioAssay AID2685 (National Center for Advancing Translational Sciences (NCATS), 2010) are described below.

The list shows a part of the results. Further columns of the screen follow, without active or inactive calls. The list favours compounds with an active or inconclusive main result. Potencies come from curve fits of mixed quality, noted in brackets.

The term AC50 denotes the concentration giving half of the maximal activity seen. Read a high AC50 as activity only at high concentration.

This assay is described as follows: qHTS Assay for Lipid Storage Modulators in Drosophila S3 Cells.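 On cell number change: cells counted by Cell Tracker Red CMTPX staining in the red channel.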 The note with it: BODIPY lipid droplet fluorescence, 18-24 h; for cell number change: measured here: cell count max response, cells fed with added oleic acid. The method, boiled down: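 Drosophila S3 cells loaded with oleic acid (400 uM, as added) and compounds at several concentrations; lipid droplets imaged by 488-nm laser-scanning cytometry, 500–530 nm intensity and object ratio to cell channel. Percent activity normalized to 20 uM Triacsin C.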
On the technique in general: qHTS replaces the single test concentration by a dilution series.

[1] abbreviates: measured here: lipid fluorescence (Fed channel) AC50, cells fed with added oleic acid.
The mark [2] stands for this setting: measured here: cell number channel AC50, cells fed with added oleic acid.

Consider `O=C(CCN1C(=O)c2ccccc2C1=O)NCCCn1ccnc1`, for which the cell number change was -0.57%.
Consider `Cc1ccnc(NS(=O)(=O)c2ccc(NS(=O)(=O)c3ccc(Br)cc3)cc2)n1`, for which the cell number change was found to be 14.9%. The AC50 under setting [1] is 2.91 µM [rising, full curve].
As to `O=C(Nc1ccccc1)/C(=C/c1cccnc1)NC(=O)c1ccccc1`, the cell number change is 88.9%. Further, the AC50 under setting [2] is 16.4 µM [rising, single point].
As to `CSc1ccccc1NC(=O)CSc1nnc(CNC(=O)c2ccccc2F)n1C`, the cell number change is 1.9%.
Consider `NS(=O)(=O)c1ccc(NC(=O)CSc2nnc(C3CC3)n2C2CC2)cc1`, for which the cell number change was -9.67%. The AC50 under setting [1] is 29.1 µM [rising, single point].
As to `Cc1cc(C)c(S(=O)(=O)Nc2c(C)[nH]c(=O)[nH]c2=O)c(C)c1`, the cell number change came to 16.6%. Besides, the AC50 under setting [1] is 0.411 µM [falling, single point].
As to `CC(=O)c1ccc(OCCNS(=O)(=O)c2ccc(-n3cnnn3)c(C)c2)cc1`, the cell number change was -11.3%. In addition, the AC50 under setting [1] was 29.1 µM [falling, single point].
Regarding `Cc1c(C(=O)NCc2ccco2)oc2c(F)cccc12`, the cell number change turned out to be 6.19%. The AC50 under setting [1] is 23.1 µM [rising, single point].
Take `CCC(CC)C(=O)Nc1cccc(C(=O)Nc2ccc(S(=O)(=O)Nc3ccc(C)cc3)cc2)c1`: the cell number change was -1.12%. The AC50 under setting [1] is 4.11 µM [rising, single point].
For the compound `COc1ccc(N(CC(=O)NCC2CCCO2)C(=O)CCC(=O)Nc2nccs2)c(OC)c1` (stereo not given), the cell number change is 20.5%.
Turning to `COc1cc2c(cc1OC)C(c1ccccc1C(F)(F)F)CC(=O)N2` (stereo not given), the cell number change is 14.4%. For the same compound, the AC50 under setting [1] was 13 µM [falling, partial curve].
On to `COc1ccccc1NC(=O)C(C)OC(=O)c1ccc(-n2cnnn2)cc1` (stereo not given), for which the cell number change was determined as 36.2%. Besides, under setting [2], the AC50 is 18.4 µM [rising, partial curve, poor fit].
Consider `CC1CCN(S(=O)(=O)c2ccc(F)c(C(=O)O)c2)CC1`, for which the cell number change is 7.64%.
For `CCOc1ccccc1N1CC(C(=O)Nc2c(C)n(C)n(-c3ccccc3)c2=O)CC1=O` (stereo not given), the cell number change is -12%. Besides, the AC50 under setting [2] was 0.231 µM [falling, partial curve, poor fit]. Under setting [1], the AC50 was 6.51 µM [rising, partial curve, poor fit].
Take `Cc1cc(C(=O)NNC(=S)Nc2cccc(C(F)(F)F)c2)nn1C`: the cell number change was found to be 10.9%. Besides, under setting [1], the AC50 is 5.17 µM [rising, full curve, poor fit].
Take `CCOC(=O)C1CCN(c2c(Nc3cc(C)cc(C)c3)c(=O)c2=O)CC1`: the cell number change was -0.955%. Moreover, the AC50 under setting [1] was 0.13 µM [rising, full curve, poor fit].
Regarding `O=C(Nc1cccc(F)c1)c1ccc(S(=O)(=O)NCC2CCCO2)cc1` (stereo not given), the cell number change was -4.47%. Besides, the AC50 under setting [1] is 29.1 µM [rising, single point].
As to `CC(C)NC(=O)c1ccc(C(C)C)cc1`, the cell number change came out at 14.8%. For the same compound, the AC50 under setting [1] was 20.6 µM [rising, single point].
With `CCOc1ccccc1NC(=O)C(c1ccccc1)N1CCN(CC(=O)N2CCOCC2)CC1` (stereo not given), the cell number change came out at 7.5%.
With `COc1cc2c(cc1NC(=S)Nc1cccc(C(F)(F)F)c1)oc1ccccc12`, the cell number change is -23.2%. The AC50 under setting [1] was 6.51 µM [rising, partial curve].
Consider `Cc1cc(-n2nc(C)cc2C)n2ncc(-c3ccccc3)c2n1`, for which the cell number change is -22.5%. The AC50 under setting [1] is 0.00517 µM [rising, full curve, poor fit].
Regarding `CCOC(=O)[C@H]1[C@H]2COc3ccc(Br)cc3[C@@H]2N2C(=O)c3ccc(C)cc3NC(=O)[C@@]12C`, the cell number change is -28.5%. For the same compound, under setting [1], the AC50 was 3.26 µM [rising, partial curve, poor fit].
In the case of `CCOc1cc(C(N)=O)cc(Br)c1OCc1ccccc1`, the cell number change is -30.9%. Under setting [2], the AC50 is 14.6 µM [falling, single point]. Besides, the AC50 under setting [1] is 6.51 µM [falling, single point].
For `O=C(NCc1ccco1)C(=O)NCC1OCCN1C(=O)c1ccc(Cl)cc1` (stereo not given), the cell number change came to 14.6%. The AC50 under setting [1] is 0.651 µM [falling, partial curve, poor fit].
As for `COc1cccc(C(=O)Nc2ccc(NC(=O)c3ccco3)cn2)c1`, the cell number change was -6.82%. The AC50 under setting [1] was 0.103 µM [falling, full curve, poor fit].
In the case of `C=CCN(CC=C)Cc1ccc(C(=O)OC)o1`, the cell number change was -19%.
With `O=C(CN1C(=O)c2ccccc2C1=O)Oc1ccc(Cl)cc1`, the cell number change was -64.9%. The AC50 under setting [2] was 29.1 µM [falling, single point]. Moreover, the AC50 under setting [1] is 5.17 µM [falling, single point].
Turning to `NS(=O)(=O)c1ccc(CCNC(=O)COC(=O)C2CCC2)cc1`, the cell number change worked out at 0.427%.
For the compound `O=C(CSc1ncn[nH]1)NN(c1ccccc1)c1ccccc1`, the cell number change worked out at 52.8%. In addition, the AC50 under setting [2] is 0.0326 µM [rising, full curve, poor fit]. Besides, the AC50 under setting [1] was 16.4 µM [rising, single point].
In the case of `O=C(NC(=S)NCC1CCCO1)c1ccc(Cl)cc1Cl` (stereo not given), under setting [2], the AC50 is 0.13 µM [rising, full curve, poor fit].
In the case of `Cc1ccc(-c2cc(C(=O)N/N=C/c3c(C)nn(C)c3C)c3ccccc3n2)c(C)c1`, the cell number change came to 22%. For the same compound, the AC50 under setting [2] was 4.61 µM [rising, single point]. Also, the AC50 under setting [1] is 3.66 µM [rising, full curve].
As for `Cc1cc(-c2ccccc2)nc(N(C)N)c1S(C)(=O)=O`, the cell number change was found to be 53.5%. The AC50 under setting [2] is 18.4 µM [rising, single point]. The AC50 under setting [1] is 0.731 µM [rising, full curve, poor fit].
Turning to `O=C(Nc1ccnn1C1CCN(Cc2ccccc2OC(F)F)CC1)c1cccc(F)c1`, the cell number change came out at 30.6%. Further, under setting [2], the AC50 is 1.64 µM [rising, full curve].
For the compound `COc1ccc(-c2c(C)oc3c(CN4CCOCC4)c(O)ccc3c2=O)cc1`, the cell number change stood at 3.35%. For the same compound, the AC50 under setting [1] was 29.1 µM [rising, single point].
For the compound `CC(=O)Nc1ccc(NC(=O)CSc2nnc(COc3ccccc3C)n2CC2CCCO2)cc1` (stereo not given), the cell number change is 154%. In addition, the AC50 under setting [2] was 5.8 µM [rising, full curve].
On to `COc1ccc2c(c1OC)C(=O)OC2Nc1ncc(Br)cc1Br` (stereo not given), for which the cell number change is 9.09%. For the same compound, the AC50 under setting [1] was 29.1 µM [falling, single point].
In the case of `CN(C)c1ccc(C(=O)N2CCCC(N3CCN(Cc4ccc5c(c4)OCO5)CC3)C2)cc1` (stereo not given), the cell number change was -1.16%. Moreover, the AC50 under setting [1] is 29.1 µM [falling, single point].
In the case of `CCOc1ccc(/C(CCC(=O)O)=N/NC(=S)NCCc2ccccc2)cc1`, the cell number change amounted to 22.2%.
Consider `COc1ccc(-c2csc(Nc3ccc(S(N)(=O)=O)cc3)n2)cc1`, for which the cell number change was -4.28%. Besides, the AC50 under setting [1] was 8.2 µM [rising, partial curve].
